Results published in article PMC12220973.
Results are given in words; binding and its absence hold for the method and conditions named. Binding seen in cells or lysates may run through a third protein. Some entries that bind do so weakly or less than the wild type.

By UniProt entry, the sequences of proteins in these tests, tags left out.
UniProt P19474: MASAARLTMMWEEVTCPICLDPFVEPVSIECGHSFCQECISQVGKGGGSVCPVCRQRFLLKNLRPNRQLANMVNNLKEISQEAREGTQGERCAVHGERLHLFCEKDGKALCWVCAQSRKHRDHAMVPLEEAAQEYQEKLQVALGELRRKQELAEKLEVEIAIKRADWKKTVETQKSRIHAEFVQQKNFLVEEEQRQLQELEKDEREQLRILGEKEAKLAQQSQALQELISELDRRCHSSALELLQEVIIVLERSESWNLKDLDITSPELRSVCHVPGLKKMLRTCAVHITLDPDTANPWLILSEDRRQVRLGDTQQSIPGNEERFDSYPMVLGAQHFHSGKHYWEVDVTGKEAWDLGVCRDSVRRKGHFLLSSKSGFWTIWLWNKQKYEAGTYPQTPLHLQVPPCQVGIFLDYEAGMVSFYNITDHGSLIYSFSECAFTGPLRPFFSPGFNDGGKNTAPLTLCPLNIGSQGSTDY

Molecular target: T1, PBX1 (human (endogenous in human glomerular MCs)) (UniProt P40424)
T1 sequence: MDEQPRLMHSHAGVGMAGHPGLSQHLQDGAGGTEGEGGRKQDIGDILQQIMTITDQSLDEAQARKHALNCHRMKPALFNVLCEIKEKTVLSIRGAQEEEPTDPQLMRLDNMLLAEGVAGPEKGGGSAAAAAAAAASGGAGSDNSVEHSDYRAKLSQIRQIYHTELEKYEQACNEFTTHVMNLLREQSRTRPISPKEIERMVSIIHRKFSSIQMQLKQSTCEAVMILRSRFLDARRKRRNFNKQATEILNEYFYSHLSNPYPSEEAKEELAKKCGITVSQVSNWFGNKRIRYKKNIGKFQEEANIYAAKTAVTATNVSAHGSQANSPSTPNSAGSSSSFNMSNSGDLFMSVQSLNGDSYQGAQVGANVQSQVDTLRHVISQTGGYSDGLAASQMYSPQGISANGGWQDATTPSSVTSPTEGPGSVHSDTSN
Assay: co-IP; endogenous PBX1 and TRIM21 in MCs stimulated with DNA-IC from SLE plasma (LN MCs) or IgG from healthy donors (HC MCs); also MCs with or without sodium L-lactate (30 mM, 1 day); detected by immunoblot

Substance: TRIM21 (from UniProt P19474 1-475) (enzyme)
- binding: binds
